Here are results for 18 compounds from PubChem BioAssay AID330 (DTP/NCI, 2004).

The list shows only some results of the screen, not a fair sample: it is rich in T/C values a quarter to a half above the control, in often repeated tests (any T/C) and in doses without a T/C. Further doses and runs are listed elsewhere. T/C: endpoint of the treated group in % of that of the vehicle group. Some entries give survivors of the animals treated and no T/C: the source holds a T/C of zero for them, seemingly a mark for toxic or unscored doses. Some doses without a T/C left all or most animals alive at the check, yet need not have been tolerated: survival well below the control is almost never listed, so the zero probably covers shortened survival too. Counts of survivors are from the toxicity check (mostly the fifth day) where no day follows; animals may have died later. Schedule codes are those of the source, read here as Q, the interval in days (D) or hours (H), X, the number of doses. Some molecules as drawn cover several salts, stereoisomers or complexes of the source; a dose is that of the sample tested. Some doses were run more than once; the values are given in rising order. For survival time, this PubChem deposit counts one and a half times the control or more as active, and values a quarter to a half above the control carry no call in these data; other NCI protocols may use other cut-offs. Some T/C values carry the count of animals alive at the toxicity check (mostly the fifth day); where none is given, no animal had died by that day.

The assay deals with P388 leukemia ip, CD2F1 mice, survival T/C. Briefly: NCI In Vivo Anticancer Drug Screen. Data for tumor model P388 Leukemia (intraperitoneal) in CD2F1 (CDF1) mice. The settings on record: T/C endpoint: median survival time, higher T/C = longer survival.
Where [1] appears, read: dose: 0.06 mg/kg/injection, schedule: Q01DX009 (ip), vehicle: DMSO.
Setting [2] is: dose: 0.25 mg/kg/injection, schedule: Q01DX009 (ip), vehicle: DMSO.
Where [3] appears, read: dose: 0.5 mg/kg/injection, schedule: Q01DX009 (ip), vehicle: DMSO.
Where [4] appears, read: dose: 1.0 mg/kg/injection, schedule: Q01DX009 (ip), vehicle: DMSO.
Setting [5] is: dose: 2.0 mg/kg/injection, schedule: Q01DX009 (ip), vehicle: DMSO.
[6] abbreviates: dose: 2.0 mg/kg/injection, schedule: Q01DX009 (ip), vehicle: other.
Setting [7] is: dose: 4.0 mg/kg/injection, schedule: Q01DX009 (ip), vehicle: other.
Where [8] appears, read: dose: 200.0 mg/kg/injection, schedule: Q01DX009 (ip), vehicle: saline with Tween-80.
Setting [9] is: dose: 200.0 mg/kg/injection, schedule: Q01DX005 (ip), vehicle: Klucel (hydroxypropylcellulose) (HPC).
[10] abbreviates: dose: 12.5 mg/kg/injection, schedule: Q01DX009 (ip), vehicle: Klucel (hydroxypropylcellulose) (HPC).
[11] abbreviates: dose: 25.0 mg/kg/injection, schedule: Q01DX009 (ip), vehicle: Klucel (hydroxypropylcellulose) (HPC).
The mark [12] stands for this setting: dose: 50.0 mg/kg/injection, schedule: Q01DX009 (ip), vehicle: Klucel (hydroxypropylcellulose) (HPC).

Take `C/C=C/C=C/c1cc2cc3c(c(O)c2c(=O)[nH]1)C1(CC3)C(O)=c2c(=O)c3c(=O)cc(OC)c(=O)c=3c(=O)c2=C1O` (stereo not drawn): the T/C was 106, 122, 151 % of control under setting [1]; 146 % of control (dose: 0.12 mg/kg/injection, schedule: Q01DX009 (ip), vehicle: DMSO); 97, 104 [5 of 6 alive], 134 % of control under setting [2]; 91 and 200 % of control under setting [3]; 100 and 166 % of control under setting [4]; 129 % of control under setting [5]. Also, the T/C under setting [6] is 141 % of control; the T/C (dose: 3.0 mg/kg/injection, schedule: Q01DX009 (ip), vehicle: Klucel (hydroxypropylcellulose) (HPC)) was 137 % of control; the T/C (dose: 3.0 mg/kg/injection, schedule: Q01DX009 (ip), vehicle: saline with Tween-80) is 138 % of control; the T/C under setting [7] is 138 % of control; the T/C (dose: 6.0 mg/kg/injection, schedule: Q01DX009 (ip), vehicle: saline with Tween-80) is 144 % of control; the T/C (dose: 500.0 micrograms/kg/injection, schedule: Q01DX009 (ip), vehicle: water) was 132 % of control. The T/C (dose: 2000.0 micrograms/kg/injection, schedule: Q01DX009 (ip), vehicle: other) is 133 % of control. The survivor count runs as follows: under setting [1], 5 of 6; (dose: 0.13 mg/kg/injection, schedule: Q01DX009 (ip), vehicle: DMSO) 6 of 6; under setting [2], 2 of 6; under setting [3], 0 of 6, 5 of 6, 6 of 6; under setting [4], 0 of 6, 1 of 6, 5 of 6; (dose: 1.0 mg/kg/injection, schedule: Q01DX009 (ip), vehicle: other) 6 of 6. Further, the survivor count reads like this: under setting [5], 0 of 6 and 1 of 6; under setting [6], 3 of 6; (dose: 4.0 mg/kg/injection, schedule: Q01DX009 (ip), vehicle: DMSO) 0 of 6; under setting [7], 0 of 6; (dose: 8.0 mg/kg/injection, schedule: Q01DX009 (ip), vehicle: DMSO) 0 of 6; (dose: 24.0 mg/kg/injection, schedule: Q01DX009 (ip), vehicle: saline with Tween-80) 4 of 6. Moreover, the survivor count (dose: 2000.0 micrograms/kg/injection, schedule: Q01DX009 (ip), vehicle: water) was 6 of 6.

For `CC(=O)N1CCN(c2ccc(OCC3COC(Cn4ccnc4)(c4ccc(Cl)cc4Cl)O3)cc2)CC1` (stereo not drawn), the survivor count under setting [8] is listed as 6 of 6.

For `CN(C)CCC=C1c2ccccc2C(C)(C)c2ccccc21`, the survivor count under setting [9] is 0 of 6.

With `ClCCN(CCCl)c1ccc(CCCCN2CCCCC2)cc1`, the T/C is, setting by setting: (dose: 1.56 mg/kg/injection, schedule: Q01DX009 (ip), vehicle: Klucel (hydroxypropylcellulose) (HPC)) 129 % of control; (dose: 3.13 mg/kg/injection, schedule: Q01DX009 (ip), vehicle: Klucel (hydroxypropylcellulose) (HPC)) 147 % of control; (dose: 6.25 mg/kg/injection, schedule: Q01DX009 (ip), vehicle: Klucel (hydroxypropylcellulose) (HPC)) 126 % of control; under setting [10], 132 % of control. In addition, the survivor count is listed as 6 of 6 under setting [11]; 0 of 6 under setting [12]; 0 of 6 (dose: 100.0 mg/kg/injection, schedule: Q01DX009 (ip), vehicle: Klucel (hydroxypropylcellulose) (HPC)); 0 of 6 (dose: 200.0 mg/kg/injection, schedule: Q01DX009 (ip), vehicle: Klucel (hydroxypropylcellulose) (HPC)).

`N=c1c2ccccc2nc2n1CCCCC2`: the survivor count (dose: 100.0 mg/kg/injection, schedule: Q04DX003 (ip), vehicle: saline) was 5 of 6.

Turning to `CNC(C#N)C(O)c1ccccc1` (stereo not drawn), the survivor count was 2 of 6 (dose: 100.0 mg/kg/injection, schedule: Q01DX009 (ip), vehicle: saline) and 1 of 6 (dose: 200.0 mg/kg/injection, schedule: Q01DX009 (ip), vehicle: saline).

In the case of `COc1ccc(N=Nc2c(-c3cccs3)nn(C(=S)SC)c2C(F)(F)F)cc1`, the survivor count runs as follows: (dose: 60.0 mg/kg/injection, schedule: Q01DX005 (ip), vehicle: saline with Tween-80) 0 of 6; (dose: 120.0 mg/kg/injection, schedule: Q01DX005 (ip), vehicle: saline with Tween-80) 0 of 6; (dose: 240.0 mg/kg/injection, schedule: Q01DX005 (ip), vehicle: saline with Tween-80) 0 of 6.

As for `CC(C)NCC(O)CC(c1ccccc1)c1ccccc1` (stereo not drawn), the survivor count under setting [8] is 0 of 6.

Take `CCN1CC2(COC)C(O)CC(OC)C34C5CC6(O)C(OC)C=C(C5C6OC(=O)c5ccc(OC)c(OC)c5)C(C(OC)C23)C14` (stereo not drawn): the survivor count runs as follows: under setting [10], 1 of 6; under setting [11], 0 of 6; under setting [12], 0 of 6.

With `Cc1nc2sc3c(c2c(=N)n1N)CCCC3`, the survivor count is on record as 0 of 6 (dose: 50.0 mg/kg/injection, schedule: Q01DX001 (ip), vehicle: Klucel (hydroxypropylcellulose) (HPC)); 0 of 6 (dose: 100.0 mg/kg/injection, schedule: Q01DX001 (ip), vehicle: Klucel (hydroxypropylcellulose) (HPC)); 0 of 6 (dose: 200.0 mg/kg/injection, schedule: Q01DX001 (ip), vehicle: Klucel (hydroxypropylcellulose) (HPC)); 0 of 6 (dose: 400.0 mg/kg/injection, schedule: Q01DX001 (ip), vehicle: Klucel (hydroxypropylcellulose) (HPC)).

With `COc1ccc(OC)c(C(=O)C=C(C(F)(F)F)C(F)(F)F)c1`, the T/C is, setting by setting: (dose: 50.0 mg/kg/injection, schedule: Q01DX009 (ip), vehicle: other) 140 % of control; (dose: 100.0 mg/kg/injection, schedule: Q04DX003 (ip), vehicle: other) 127 % of control. Under “dose: 200.0 mg/kg/injection, schedule: Q04DX003 (ip), vehicle: other”, the survivor count was 3 of 6.

On to `CCOC(=O)C(Cc1ccc(N(CCCl)CCCl)cc1)NC(=O)C(CCC(=O)O)NC(=O)C(CO)NC(=O)C(CCC(=O)O)NC(=O)C(N)CO` (stereo not drawn), for which the T/C was 131 % of control (dose: 80.0 mg/kg/injection, schedule: Q04DX003 (ip), vehicle: water) and 129 % of control (dose: 160.0 mg/kg/injection, schedule: Q04DX003 (ip), vehicle: water).

For the compound `OC(c1cc(-c2cccc(Cl)c2)nc2ccccc12)C1CCCCN1` (stereo not drawn), the survivor count under setting [9] was 1 of 5.

Regarding `COc1ccc2c(Br)c(NC(C)=O)ccc2c1Br`, under “dose: 200.0 mg/kg/injection, schedule: Q04DX003 (ip), vehicle: saline”, the survivor count was 6 of 6.

With `CC(=O)C[n+]1ccccc1-c1ccccc1C`, the survivor count (dose: 100.0 mg/kg/injection, schedule: Q01DX005 (ip), vehicle: saline with Tween-80) was 0 of 5 and the survivor count (dose: 200.0 mg/kg/injection, schedule: Q01DX005 (ip), vehicle: saline with Tween-80) is reported as 0 of 5.

Regarding `CN(C)C1CC(C)(O)Cc2cc3c(c(O)c21)C(=O)c1c(O)cc2c(c1C3=O)OC1OC2(C)C(O)C(N(C)C)C1O` (stereo not drawn), the T/C (dose: 12.5 mg/kg/injection, schedule: Q01DX009 (ip), vehicle: other) was 132 % of control and the T/C (dose: 25.0 mg/kg/injection, schedule: Q01DX009 (ip), vehicle: other) was 141 % of control.

As for `Nc1ccc(NC(=O)c2cc(Cl)cc(Cl)c2O)c(Cl)c1`, the survivor count under setting [8] is reported as 2 of 6.

`COc1ccc2c(c1)CCC(c1ccccc1)=C2c1ccc(OCCN2CCCC2)cc1`: under “dose: 96.0 mg/kg/injection, schedule: Q01DX005 (ip), vehicle: Klucel (hydroxypropylcellulose) (HPC)”, the survivor count was 6 of 6.
